PubChem BioAssay AID1508597, Cure First – 2020

Assay: 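Knock-downs altering ovarian cancer cell survival with or without PARP inhibitor rucaparib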 (primary screen)
Cells: human ovarian carcinoma lines grown from tumours: OCI-P5x (papillary serous) and OCI-C5x (clear cell)
Knock-down reagent: siRNA pool against human genes, 1.25 pmol siRNA per well
Time to read-out: 72 h or 96 h, depending on the cell culture
Challenge: rucaparib 20 µM (about IC30) or vehicle, present until read-out
Rucaparib or vehicle: Rucaparib
Cell line: OCI-C5x (clear cell)
Measured: 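ATP luminescence measured at 72 or 96 h according to the culture, then normalised and expressed as percent viability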
Reading the numbers: viability, normalised: higher = more viable cells remaining
Active means: 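Active when normalised viability falls below 80 percent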
Meaning of the calls: active = viability under 80%; inactive = viability 80% or more
This is a random part of the about 2,100 reagents, under one of the conditions tested. 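Calls flag viability under 80% in either arm, not effects specific to rucaparib; the reference for percent is not stated.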 A reagent listed more than once was tested more than once; the source does not tell the runs apart. Not stated in the record: the 100% reference.

| gene knocked down | technical replicate | viability, normalised (%) | Call |
| --- | --- | --- | --- |
| MSH4 (mutS homolog 4) | 1 | 45.4 | active |
| MSH4 (mutS homolog 4) | 2 | 48 | active |
| MSH4 (mutS homolog 4) | 3 | 54.9 | active |
| BRD9 (bromodomain containing 9) | 1 | 42 | active |
| BRD9 (bromodomain containing 9) | 2 | 45.7 | active |
| BRD9 (bromodomain containing 9) | 3 | 34.7 | active |
| BAK1 (BCL2 antagonist/killer 1) | 1 | 52.9 | active |
| BAK1 (BCL2 antagonist/killer 1) | 2 | 42.2 | active |
| BAK1 (BCL2 antagonist/killer 1) | 3 | 46.9 | active |
| KMT2B (lysine methyltransferase 2B) | 1 | 43.7 | active |
| KMT2B (lysine methyltransferase 2B) | 2 | 37.4 | active |
| KMT2B (lysine methyltransferase 2B) | 3 | 45.1 | active |
| PRKCB (protein kinase C beta) | 1 | 38.2 | active |
| PRKCB (protein kinase C beta) | 1 | 33.3 | active |
| PRKCB (protein kinase C beta) | 2 | 28.5 | active |
| PRKCB (protein kinase C beta) | 2 | 31.9 | active |
| PRKCB (protein kinase C beta) | 3 | 34.2 | active |
| PRKCB (protein kinase C beta) | 3 | 30.5 | active |
| RCBTB1 (RCC1 and BTB domain containing protein 1) | 1 | 46.7 | active |
| RCBTB1 (RCC1 and BTB domain containing protein 1) | 2 | 57.8 | active |
| RCBTB1 (RCC1 and BTB domain containing protein 1) | 3 | 41.8 | active |
| RPIA (ribose 5-phosphate isomerase A) | 1 | 47.1 | active |
| RPIA (ribose 5-phosphate isomerase A) | 2 | 54.7 | active |
| RPIA (ribose 5-phosphate isomerase A) | 3 | 55.7 | active |
| BRPF1 (bromodomain and PHD finger containing 1) | 1 | 52.4 | active |
| BRPF1 (bromodomain and PHD finger containing 1) | 2 | 44.7 | active |
| BRPF1 (bromodomain and PHD finger containing 1) | 3 | 49.3 | active |
| DDX52 (DExD-box helicase 52) | 1 | 71.4 | active |
| DDX52 (DExD-box helicase 52) | 2 | 60.4 | active |
| DDX52 (DExD-box helicase 52) | 3 | 61 | active |
| SULT1A2 (sulfotransferase family 1A member 2) | 1 | 55.8 | active |
| SULT1A2 (sulfotransferase family 1A member 2) | 2 | 49.8 | active |
| SULT1A2 (sulfotransferase family 1A member 2) | 3 | 51.9 | active |
| NME4 (NME/NM23 nucleoside diphosphate kinase 4) | 1 | 54.6 | active |
| NME4 (NME/NM23 nucleoside diphosphate kinase 4) | 1 | 69.9 | active |
| NME4 (NME/NM23 nucleoside diphosphate kinase 4) | 2 | 54 | active |
| NME4 (NME/NM23 nucleoside diphosphate kinase 4) | 2 | 38.8 | active |
| NME4 (NME/NM23 nucleoside diphosphate kinase 4) | 2 | 50.9 | active |
| NME4 (NME/NM23 nucleoside diphosphate kinase 4) | 3 | 71.9 | active |
| NME4 (NME/NM23 nucleoside diphosphate kinase 4) | 3 | 52.2 | active |
| NME4 (NME/NM23 nucleoside diphosphate kinase 4) | 3 | 69.8 | active |
| MPP1 (MAGUK p55 scaffold protein 1) | 1 | 68.8 | active |
| MPP1 (MAGUK p55 scaffold protein 1) | 2 | 66.6 | active |
| MPP1 (MAGUK p55 scaffold protein 1) | 3 | 48.7 | active |
| BMPR2 (bone morphogenetic protein receptor type 2) | 1 | 62.6 | active |
| BMPR2 (bone morphogenetic protein receptor type 2) | 2 | 53.8 | active |
| BMPR2 (bone morphogenetic protein receptor type 2) | 3 | 52.1 | active |
| ACVR1B (activin A receptor type 1B) | 1 | 59.7 | active |
| ACVR1B (activin A receptor type 1B) | 2 | 58.3 | active |
| ACVR1B (activin A receptor type 1B) | 3 | 60.8 | active |
| PAF1 (PAF1 component of Paf1/RNA polymerase II complex) | 1 | 48.8 | active |
| PAF1 (PAF1 component of Paf1/RNA polymerase II complex) | 2 | 59.2 | active |
| PAF1 (PAF1 component of Paf1/RNA polymerase II complex) | 3 | 53.2 | active |
| PSMC2 (proteasome 26S subunit, ATPase 2) | 1 | 37.7 | active |
| PSMC2 (proteasome 26S subunit, ATPase 2) | 2 | 52.7 | active |
| PSMC2 (proteasome 26S subunit, ATPase 2) | 3 | 51.4 | active |
| RAD1 (RAD1 checkpoint DNA exonuclease) | 1 | 36.8 | active |
| RAD1 (RAD1 checkpoint DNA exonuclease) | 2 | 57.4 | active |
| RAD1 (RAD1 checkpoint DNA exonuclease) | 3 | 51.8 | active |
| ZCWPW1 (zinc finger CW-type and PWWP domain containing 1) | 1 | 46.6 | active |
| ZCWPW1 (zinc finger CW-type and PWWP domain containing 1) | 2 | 53.8 | active |
| ZCWPW1 (zinc finger CW-type and PWWP domain containing 1) | 3 | 35.8 | active |
| TOP3A (DNA topoisomerase III alpha) | 1 | 69.1 | active |
| TOP3A (DNA topoisomerase III alpha) | 2 | 60.2 | active |
| TOP3A (DNA topoisomerase III alpha) | 3 | 70.4 | active |
| RP2 (RP2 activator of ARL3 GTPase) | 1 | 47.2 | active |
| RP2 (RP2 activator of ARL3 GTPase) | 2 | 48.5 | active |
| RP2 (RP2 activator of ARL3 GTPase) | 3 | 38.4 | active |
| FOXC1 (forkhead box C1) | 1 | 54.4 | active |
| FOXC1 (forkhead box C1) | 2 | 44 | active |
| FOXC1 (forkhead box C1) | 3 | 51.4 | active |
| EP400 (E1A binding protein p400) | 1 | 60.4 | active |
| EP400 (E1A binding protein p400) | 2 | 39.2 | active |
| EP400 (E1A binding protein p400) | 3 | 49.8 | active |
